Test results published in article PMC10649679.
These are yes or no findings as the source states them, for the method shown. Binding seen in cells or lysates may run through a third protein. Some binding calls cover weakened binding; strength is not graded here. Tags and fused reporters may be left off the sequences shown.

Sequences of proteins named here, by UniProt entry; tags and fusion partners are left off.
UniProt Q13596: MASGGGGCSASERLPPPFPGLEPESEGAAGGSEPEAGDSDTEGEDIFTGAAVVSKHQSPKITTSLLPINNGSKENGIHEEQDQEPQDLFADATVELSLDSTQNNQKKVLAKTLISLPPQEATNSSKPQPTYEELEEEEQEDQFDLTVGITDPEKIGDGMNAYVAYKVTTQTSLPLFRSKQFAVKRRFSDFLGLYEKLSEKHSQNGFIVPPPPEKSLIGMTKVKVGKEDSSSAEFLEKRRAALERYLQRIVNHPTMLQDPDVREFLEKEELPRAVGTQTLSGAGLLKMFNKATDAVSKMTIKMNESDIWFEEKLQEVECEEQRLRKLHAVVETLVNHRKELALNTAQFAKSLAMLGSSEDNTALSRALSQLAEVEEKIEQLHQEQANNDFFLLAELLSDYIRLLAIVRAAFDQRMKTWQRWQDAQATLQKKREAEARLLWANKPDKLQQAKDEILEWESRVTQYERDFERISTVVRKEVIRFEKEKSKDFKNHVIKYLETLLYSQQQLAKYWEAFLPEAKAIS

Target: T1, fusion protein of GFP with the cytoplasmic domain of cation-independent mannose 6-phosphate receptor (UniProt P11717)
T1 sequence: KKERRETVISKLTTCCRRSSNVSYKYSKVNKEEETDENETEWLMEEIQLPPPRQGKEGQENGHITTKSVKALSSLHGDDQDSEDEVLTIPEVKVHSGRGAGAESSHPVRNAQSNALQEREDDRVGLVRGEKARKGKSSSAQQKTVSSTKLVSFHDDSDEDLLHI
Assay: co-IP; GFP-trap beads (Chromotek) on lysates of HEK293T cells transfected with the GFP fusion constructs; lysis in 50 mM Tris/HCl, 0.5% NP40, protease inhibitors, pH 7.4; 1 h at 4 °C; endogenous partners detected by Western blot (LI-COR Odyssey); enrichment given relative to GFP only

- binding: binds
Substance: SNX1 (from UniProt Q13596 1-522)
